From article PMC8091583 (FEBS Open Bio, 2021)
Changes are numbered by the printed parent chain. Results are given in words; binding and its absence hold for the method and conditions named. Binding calls can cover weak binding; strength is not graded here. Sequences can lack the tags named with a protein.

Key:
Experiment in all cases: two-hybrid; Matchmaker Two-Hybrid System 2, BD-PYL3 or mutants (pGBKT7, bait) and AD-HAB1 (pGADT7, prey) in S. cerevisiae AH109, growth on SD-TLHA at 30 °C; without ABA
[1] = target: T1, BD-PYL3 V108K V107L V192F L111F (Arabidopsis thaliana) (UniProt Q9SSM7)
T1 sequence: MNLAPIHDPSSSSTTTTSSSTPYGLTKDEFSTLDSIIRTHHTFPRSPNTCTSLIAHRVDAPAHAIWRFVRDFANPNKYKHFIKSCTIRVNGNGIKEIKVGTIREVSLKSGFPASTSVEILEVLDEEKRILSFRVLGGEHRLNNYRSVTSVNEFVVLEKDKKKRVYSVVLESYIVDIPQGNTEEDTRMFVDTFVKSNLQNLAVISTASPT

[2] = target: T2, BD-PYL3 V108K V107L V192F (Arabidopsis thaliana) (UniProt Q9SSM7)
T2 sequence: T1 sequence with F111L

[3] = target: T3, BD-PYL3 V108K V107F V192F (Arabidopsis thaliana) (UniProt Q9SSM7)
T3 sequence: T1 sequence with L107F, F111L

[4] = target: T4, BD-PYL3 V108K V107F V192F L111F (Arabidopsis thaliana) (UniProt Q9SSM7)
T4 sequence: T1 sequence with L107F

binding [1]: binds
binding [2]: binds
binding [3]: binds
binding [4]: binds
Substance: AD-HAB1 (169-511) (Arabidopsis thaliana) (domain or fragment)
